# Results taken from the supplement of paper PMC7877785.
# ± gives the uncertainty stated by the source. The uncertainty is large for many entries.
# Test: self-splicing fitness, log relative to wild type (ln ratio); higher = more splicing; Tetrahymena group I intron in knt gene, E. coli kanamycin selection, DiMSum; sequences stand for … in CUCUCU…GGAGGGAAAAGUUAUCAGGCAUGCACCUGGUAGCUAGUCUUUAAACCAAUAGAUUGCAUCGGUUUAAAAGGCAAGACCGUCAAAUUGCGGGAAAGGGGUCAACAGCCGUUCAGUACCAAGUCUCAGGGGAAACUUUGAGAUGGCCUUGCAAAGGGUAUGGUAAUAAGCUGACGGACAUGGUCCUAACCACGCAGCCAAGUCCUAAGUCAACAGAUCUUCUGUUGAUAUGGAUGCAGUUCACAGACUAAAUGUCGGUCGGGGAAGAUGUAUUCUUCUCAUAAGAUAUAGUCGGACCUCUCCUUAAUGGGAGCUAGCGGAUGAAGUGAUGCAACACUGGAGCCGCUGGGAACUAAUUUGUAUGCGAAAGUAUAUUGAUUAGUUUUGGAGUACUCGUGGUCG
# Method in brief: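 Fitness was computed with DiMSum as the error-weighted combination of replicate fold changes, kanamycin versus none, each normalised to wild type. The library randomised all eight intron nucleotides of the P1ex region, with the intron placed in the knt kanamycin-resistance gene on pET-22b(+) in E. coli BL21(DE3). Six replicate transformations were grown overnight at 37°C or 30°C on LB agar with or without 25 μg/mL kanamycin, plus 100 μg/mL carbenicillin, 50 μM IPTG and 0.2% rhamnose. Pooled colonies were amplicon-sequenced on an Illumina HiSeq 2500.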
Sequence,self-splicing fitness (ln) (30 °C),self-splicing fitness (ln) (37 °C)
UGGGAGCAAUAUUACGUGAA,-2.16 ± 0.61,-0.758 ± 0.55
UCAAAGCAAUAUUACGUUAC,-6.61 ± 0.71,
UUCGAGCAAUAUUACGAGAA,-2.68 ± 0.65,
UCAUAGCAAUAUUACGAAAC,,-2.45 ± 0.56
CUAAAGCAAUAUUACGACCC,,-1.33 ± 1.2
GGGGAGCAAUAUUACGCUAA,-2.25 ± 0.65,
CUUCAGCAAUAUUACGCCAA,-2.09 ± 1,
CACUAGCAAUAUUACGGACC,-3.83 ± 0.72,
UGCAAGCAAUAUUACGCUUG,-4.3 ± 0.6,
CAGGAGCAAUAUUACGAUGC,-4.21 ± 1,
UCGUAGCAAUAUUACGAUCC,,-1.6 ± 0.82
CCUUAGCAAUAUUACGCAGC,,-2.48 ± 0.62
CCUAAGCAAUAUUACGAGAA,,-2.76 ± 0.55
CUGGAGCAAUAUUACGCGAU,-2.76 ± 0.16,-1.9 ± 0.15
AGAGAGCAAUAUUACGGCAA,-4.04 ± 1.1,-1.48 ± 0.4
CGCCAGCAAUAUUACGUCCC,,-2.37 ± 0.49
GCGGAGCAAUAUUACGAAUG,-2.52 ± 0.53,-1.38 ± 0.71
CCGUAGCAAUAUUACGAGUC,,-3.81 ± 0.51
GUGAAGCAAUAUUACGAACG,-1.57 ± 0.4,-1.6 ± 0.52
UCUAAGCAAUAUUACGUGUC,,-3.08 ± 1
CUCGAGCAAUAUUACGGGCC,-0.86 ± 0.91,-1.48 ± 0.56
UUCGAGCAAUAUUACGGAUC,-4.36 ± 0.53,
GAGAAGCAAUAUUACGGCCC,-0.643 ± 0.56,-0.392 ± 0.68
AAUGAGCAAUAUUACGGGUC,,-2.9 ± 0.52

Sequence,self-splicing fitness (ln) (30 °C),self-splicing fitness (ln) (37 °C)
CGCGAGCAAUAUUACGCUCA,-2.09 ± 1.4,
UGCGAGCAAUAUUACGAUGC,,0.0981 ± 1.2
GUCCAGCAAUAUUACGGACC,-5.06 ± 0.71,
UUCUAGCAAUAUUACGCGCC,-3.48 ± 1.1,
CGCUAGCAAUAUUACGAAGA,,-2.31 ± 0.63
GGAGAGCAAUAUUACGUAUA,,-2 ± 0.67
CUUGAGCAAUAUUACGCCUA,-0.743 ± 0.6,
CAUGAGCAAUAUUACGCGAA,-3.03 ± 0.17,-1.57 ± 0.15
GCCGAGCAAUAUUACGAUGU,-0.691 ± 0.057,-0.267 ± 0.069
CUUUAGCAAUAUUACGACAA,-2.47 ± 0.67,-2.54 ± 1.1
GUCGAGCAAUAUUACGUCAC,-2.35 ± 0.69,-3.98 ± 0.82
UAGGAGCAAUAUUACGCUGG,-2.38 ± 0.43,-0.826 ± 0.28
UUAAAGCAAUAUUACGCGAA,-0.169 ± 0.15,0.0649 ± 0.18
GCGGAGCAAUAUUACGCAGG,-2.44 ± 0.78,-1.56 ± 0.55
AUCGAGCAAUAUUACGUAUA,,-2.28 ± 0.65
GUCUAGCAAUAUUACGGCGG,-2.66 ± 0.42,-2.32 ± 0.4
UGUGAGCAAUAUUACGCGGG,-3.65 ± 0.52,
AGAGAGCAAUAUUACGGAGG,-3.9 ± 0.74,-2.55 ± 0.76
GCUGAGCAAUAUUACGGCCC,-1.27 ± 1.4,-2.32 ± 0.35
AUCGAGCAAUAUUACGGGGC,,-4.15 ± 1
CCUUAGCAAUAUUACGGACC,-2.33 ± 0.3,-1.69 ± 0.64
ACCUAGCAAUAUUACGUCCC,,-1.25 ± 0.63
AAGUAGCAAUAUUACGGGCC,-2.75 ± 0.63,
CAGCAGCAAUAUUACGAGAA,-4.29 ± 1.1,

Sequence,self-splicing fitness (ln) (30 °C),self-splicing fitness (ln) (37 °C)
UCGGAGCAAUAUUACGUUAG,-4.67 ± 0.51,
CUUUAGCAAUAUUACGGCAC,-2.64 ± 0.56,
CGUAAGCAAUAUUACGCUUC,-4.29 ± 1,
GGACAGCAAUAUUACGGGCC,-3.62 ± 0.61,
UCGGAGCAAUAUUACGCAUC,-3.68 ± 0.53,-3.44 ± 0.59
AGGCAGCAAUAUUACGGGGA,-3.6 ± 0.53,
ACAGAGCAAUAUUACGCCCU,-3.23 ± 0.23,-2.02 ± 0.3
CUACAGCAAUAUUACGGACC,-3.72 ± 1,-2.75 ± 0.53
UUCCAGCAAUAUUACGGUUU,-0.65 ± 0.064,-0.427 ± 0.063
UAGGAGCAAUAUUACGCGAA,-3.07 ± 1.1,-2.36 ± 0.55
UCGGAGCAAUAUUACGGCCC,-2.75 ± 0.53,
GGAGAGCAAUAUUACGGGGU,-4.14 ± 0.73,-4.08 ± 1
UAUGAGCAAUAUUACGGGCC,-2.16 ± 0.51,
UUGGAGCAAUAUUACGAUGG,-1.53 ± 0.21,-1.54 ± 0.21
CUGCAGCAAUAUUACGUCCA,-4.07 ± 0.6,-3.54 ± 0.74
CACUAGCAAUAUUACGUCUA,-2.25 ± 0.23,-2.52 ± 0.29
AUUUAGCAAUAUUACGUGGC,-3.57 ± 0.43,-1.69 ± 0.32
AAAGAGCAAUAUUACGGUAA,-1.74 ± 0.3,-1.67 ± 0.26
UUCCAGCAAUAUUACGUUUC,-3.24 ± 0.23,-2.17 ± 0.21
UAGUAGCAAUAUUACGGCAC,-3.9 ± 1,-2.4 ± 0.77
CGUCAGCAAUAUUACGCCGA,-3.27 ± 1.1,-1.38 ± 0.84
CUUCAGCAAUAUUACGACAC,-3.5 ± 0.73,
UAUGAGCAAUAUUACGCAUA,-3.28 ± 0.53,
UCAAAGCAAUAUUACGCGAC,-3.19 ± 0.53,-2.79 ± 0.61

Sequence,self-splicing fitness (ln) (30 °C),self-splicing fitness (ln) (37 °C)
AAGCAGCAAUAUUACGCGGU,-3.08 ± 0.17,-2.55 ± 0.23
AAGGAGCAAUAUUACGCCAC,-3.23 ± 1,-2.66 ± 0.76
UAUGAGCAAUAUUACGGCUU,-3.3 ± 0.5,
CAAGAGCAAUAUUACGCCCC,,-1.33 ± 1.2
CAUUAGCAAUAUUACGCCGA,-2.32 ± 0.19,-2.18 ± 0.2
UGGUAGCAAUAUUACGAAGU,-3.19 ± 0.54,-1.11 ± 0.53
GGCGAGCAAUAUUACGGCCC,0.209 ± 0.31,
AUCCAGCAAUAUUACGUAGA,-0.783 ± 0.073,-0.0552 ± 0.12
CUACAGCAAUAUUACGCUUG,-2.37 ± 0.15,-2.26 ± 0.16
UCAGAGCAAUAUUACGCUCU,-3.03 ± 1.1,-2.51 ± 0.64
GAUGAGCAAUAUUACGCUUC,,-1.86 ± 0.6
UUCUAGCAAUAUUACGAAUG,,-3.17 ± 0.61
UUUGAGCAAUAUUACGCAUA,-0.813 ± 0.73,
GAUUAGCAAUAUUACGGGUG,-1.52 ± 0.097,-0.58 ± 0.12
UACGAGCAAUAUUACGGGAC,-4.39 ± 1,-2.03 ± 0.51
UUUUAGCAAUAUUACGACAC,,-1.29 ± 1.2
AAUUAGCAAUAUUACGACCC,-0.488 ± 0.53,
CGCUAGCAAUAUUACGGGGG,-2.53 ± 0.14,-2.43 ± 0.16
CGAUAGCAAUAUUACGCUAC,,-3.08 ± 0.6
AGUGAGCAAUAUUACGUUAC,,-3.49 ± 0.73
UGGAAGCAAUAUUACGCCCA,-0.787 ± 0.63,
GACGAGCAAUAUUACGCCUA,,-1.67 ± 0.51
GGCUAGCAAUAUUACGAUAA,-1.28 ± 0.17,-1.75 ± 0.16
CUAUAGCAAUAUUACGAGGC,,-3.59 ± 0.73

# Retrieved one by one from the entries so far:
Sequence,self-splicing fitness (ln) (30 °C),self-splicing fitness (ln) (37 °C)
UUCGAGCAAUAUUACGAGAA,-2.68 ± 0.65,
AUCGAGCAAUAUUACGUAUA,,-2.28 ± 0.65
UGGUAGCAAUAUUACGAAGU,-3.19 ± 0.54,-1.11 ± 0.53

# Later entries:

Sequence,self-splicing fitness (ln) (30 °C),self-splicing fitness (ln) (37 °C)
UGCGAGCAAUAUUACGCCAA,-3.7 ± 1.1,-2.42 ± 0.77
ACGGAGCAAUAUUACGUUAU,-4.91 ± 0.51,
GCAGAGCAAUAUUACGAUCG,-3.22 ± 0.64,
GGAGAGCAAUAUUACGCAGA,-1.87 ± 0.81,-2.2 ± 1.1
AAAGAGCAAUAUUACGUCGC,,-3.13 ± 0.6
UUGGAGCAAUAUUACGGAAC,,-2.38 ± 0.55
CUGGAGCAAUAUUACGGGAA,-2.68 ± 0.31,-2.36 ± 0.27
UCGUAGCAAUAUUACGAAUA,-3.94 ± 0.61,
GCCGAGCAAUAUUACGAUCU,-2.66 ± 0.69,
CAUAAGCAAUAUUACGCAUC,-2.91 ± 0.75,
CCGGAGCAAUAUUACGCACG,-3.96 ± 1,
GCGGAGCAAUAUUACGCCCC,-2.25 ± 1.1,-2.16 ± 1.1
CGGGAGCAAUAUUACGAAGU,-3.58 ± 0.73,
ACAGAGCAAUAUUACGAAGC,,-3.16 ± 0.76
UAGGAGCAAUAUUACGGAGA,-4.01 ± 0.59,
UGCUAGCAAUAUUACGGUAC,-1.4 ± 1.2,
CUAGAGCAAUAUUACGGAGC,-5.02 ± 0.51,
UAUUAGCAAUAUUACGCGCU,-0.731 ± 0.15,-0.558 ± 0.18
UUAGAGCAAUAUUACGUUCC,,-0.481 ± 0.61
ACAUAGCAAUAUUACGAGGA,-3.66 ± 0.52,
AUGGAGCAAUAUUACGUCCA,-0.783 ± 0.45,-0.778 ± 0.34
CAUUAGCAAUAUUACGUCCA,-3.34 ± 0.32,-1.3 ± 0.28
